# Values quoted from earlier work, collected in PMC9323911, “Comparative Metabolomics Study of the Impact of Articaine and Lidocaine on the Metabolism of SH-SY5Y Neuronal Cells” (Metabolites, 2022).
# Where a name gives a salt, the structure may show the parent alone.
# Columns and labels:
# SH-SY5Y cells = settings: 20 min incubation of SH-SY5Y cells; cited from earlier work
# [1] = tested on: neuronal cells of a different lineage (SHEP); settings: 24 h; cited from earlier work
structure (smiles),measurement,setting,value
"CCN(CC)CC(=O)Nc1c(C)cccc1C [LDC, lidocaine hydrochloride]",LD50,SH-SY5Y cells,3.3 mM
same,LD50,[1],9.2 mM
